± gives the uncertainty stated by the source. The uncertainty is large for many entries.
Assay: self-splicing fitness, log relative to wild type (ln ratio); higher = more splicing; Tetrahymena group I intron in knt gene, E. coli kanamycin selection, DiMSum; sequences stand for … in CUCUCU…GGAGGGAAAAGUUAUCAGGCAUGCACCUGGUAGCUAGUCUUUAAACCAAUAGAUUGCAUCGGUUUAAAAGGCAAGACCGUCAAAUUGCGGGAAAGGGGUCAACAGCCGUUCAGUACCAAGUCUCAGGGGAAACUUUGAGAUGGCCUUGCAAAGGGUAUGGUAAUAAGCUGACGGACAUGGUCCUAACCACGCAGCCAAGUCCUAAGUCAACAGAUCUUCUGUUGAUAUGGAUGCAGUUCACAGACUAAAUGUCGGUCGGGGAAGAUGUAUUCUUCUCAUAAGAUAUAGUCGGACCUCUCCUUAAUGGGAGCUAGCGGAUGAAGUGAUGCAACACUGGAGCCGCUGGGAACUAAUUUGUAUGCGAAAGUAUAUUGAUUAGUUUUGGAGUACUCGUGGUCG
Method in brief: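 Pooled colonies went to amplicon sequencing on an Illumina HiSeq 2500 after six replicate transformations. The plates were LB agar with 100 μg/mL carbenicillin, 50 μM IPTG and 0.2% rhamnose, with or without 25 μg/mL kanamycin, incubated overnight at 37°C or 30°C. The E. coli BL21(DE3) library had all eight P1ex-region intron nucleotides randomised, the intron placed in the knt kanamycin-resistance gene on pET-22b(+). DiMSum fitness is the error-weighted combination of replicate fold changes, kanamycin against none, normalised to wild type.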

Sequence	self-splicing fitness (ln) (30 °C)	self-splicing fitness (ln) (37 °C)
UCACAGCAAUAUUACGCUUC	-4.3 ± 0.43	-3.28 ± 0.43
AAGGAGCAAUAUUACGACAG	-3.83 ± 1	-3.61 ± 1
UCAGAGCAAUAUUACGGGAA	-4.62 ± 1	
AGGAAGCAAUAUUACGUACG	-1.15 ± 0.11	-0.064 ± 0.1
UCUGAGCAAUAUUACGCACA	-3.97 ± 0.6	
AGUAAGCAAUAUUACGAAAG		-3 ± 0.74
CUUGAGCAAUAUUACGAACC	-3.25 ± 0.74	
GCUGAGCAAUAUUACGCGGC	-3.48 ± 1.1	
CUCAAGCAAUAUUACGUCCC		-2.98 ± 1.1
UGCGAGCAAUAUUACGCGAC		-0.595 ± 1.4
CAAGAGCAAUAUUACGAGAA	-1.27 ± 0.63	-0.663 ± 0.68
GUAUAGCAAUAUUACGAGAA	-1.88 ± 0.79	
UUCGAGCAAUAUUACGGAGU	-3.82 ± 0.77	
CACUAGCAAUAUUACGCUCC	-3.7 ± 0.61	
AUUUAGCAAUAUUACGGUAC	-3.26 ± 0.62	
UAUCAGCAAUAUUACGCGCA	-0.571 ± 0.091	0.506 ± 0.11
AAAGAGCAAUAUUACGGACC	-4.02 ± 0.52	
CUUUAGCAAUAUUACGCUCU	-2.15 ± 0.22	-1.3 ± 0.26
GAGCAGCAAUAUUACGUCUG	-2.87 ± 0.82	-1.67 ± 0.55
AGUAAGCAAUAUUACGAGGC		-3.3 ± 1
CGGGAGCAAUAUUACGUCGC	-4.58 ± 1	-2.15 ± 0.79
ACGGAGCAAUAUUACGGAGC		-2.53 ± 0.62
CUUGAGCAAUAUUACGAGAA		-1.37 ± 0.62
CUUGAGCAAUAUUACGUCCU	-4.37 ± 0.72	-2.76 ± 0.53
CUUCAGCAAUAUUACGCGCU	-4.41 ± 1	
CAUGAGCAAUAUUACGACUA		-3.58 ± 0.59

Some of the entries so far, with each value named.
UAUCAGCAAUAUUACGCGCA
  self-splicing fitness (ln) (30 °C): -0.571 ± 0.091; self-splicing fitness (ln) (37 °C): 0.506 ± 0.11
AAAGAGCAAUAUUACGGACC
  self-splicing fitness (ln) (30 °C): -4.02 ± 0.52
CUUUAGCAAUAUUACGCUCU
  self-splicing fitness (ln) (30 °C): -2.15 ± 0.22; self-splicing fitness (ln) (37 °C): -1.3 ± 0.26

Following part.

Sequence	self-splicing fitness (ln) (30 °C)	self-splicing fitness (ln) (37 °C)
GGCCAGCAAUAUUACGCCCG		-1.18 ± 0.69
CGCGAGCAAUAUUACGCCCU	-3.1 ± 0.29	-2.5 ± 0.39
ACCCAGCAAUAUUACGAACA	-0.802 ± 0.11	-1.35 ± 0.13
AUUGAGCAAUAUUACGCGUA	-3.63 ± 0.54	
AUUCAGCAAUAUUACGACCC	0.119 ± 0.42	0.209 ± 0.5
UCCAAGCAAUAUUACGUUCG	-3.57 ± 0.27	-2.2 ± 0.21
CAGAAGCAAUAUUACGCUGA	-2.87 ± 0.18	-1.98 ± 0.15
UUAGAGCAAUAUUACGUUUC		-2.71 ± 0.76
GUCUAGCAAUAUUACGCGAG	-1.08 ± 0.13	0.182 ± 0.13
CCCGAGCAAUAUUACGAGAC	-2.84 ± 0.75	-3.17 ± 0.74
UUUUAGCAAUAUUACGUCAC		-2.65 ± 0.65
GUGGAGCAAUAUUACGGAUA	-2.95 ± 1.1	
UAUGAGCAAUAUUACGGGCA	-3.16 ± 0.56	-3.35 ± 0.52
UACGAGCAAUAUUACGAUCU		-3.44 ± 0.52
GUCUAGCAAUAUUACGCCAC	-0.135 ± 1.2	-1.54 ± 1.2
AAGGAGCAAUAUUACGCCUC		-0.595 ± 1
AGAUAGCAAUAUUACGGCCU	-0.604 ± 0.11	0.606 ± 0.14
UGGGAGCAAUAUUACGCUCA	-2.89 ± 0.61	
GGGAAGCAAUAUUACGGGGU	-3.97 ± 0.74	
AGUUAGCAAUAUUACGAAGA	-1.18 ± 0.4	-2.26 ± 0.34
AGAUAGCAAUAUUACGUGAC	-3.44 ± 0.23	-2.71 ± 0.48
UCGAAGCAAUAUUACGACCC		-1.69 ± 0.81
CCUUAGCAAUAUUACGCCUC	-3.57 ± 0.52	
UCAAAGCAAUAUUACGCAAC		-2.99 ± 0.53
CAUGAGCAAUAUUACGAUAC		-2.61 ± 0.54
UGGUAGCAAUAUUACGCCGC	-1.99 ± 0.64	-2.39 ± 0.77

Sequence	self-splicing fitness (ln) (30 °C)	self-splicing fitness (ln) (37 °C)
CGGAAGCAAUAUUACGCUUC		-3.2 ± 0.52
GUCGAGCAAUAUUACGCUUU	-1.81 ± 0.18	-1.92 ± 0.2
GCAGAGCAAUAUUACGUCAU	-4.16 ± 0.72	
AGCGAGCAAUAUUACGAUCC	-2.4 ± 0.69	
AAAAAGCAAUAUUACGGGAG	-2.11 ± 0.11	-1.04 ± 0.12
ACAGAGCAAUAUUACGAAUC		-0.645 ± 0.58
UCUAAGCAAUAUUACGACGG	0.00998 ± 0.076	0.286 ± 0.11
UUCGAGCAAUAUUACGUAAC	-3.36 ± 0.54	-1.46 ± 0.71
GAAAAGCAAUAUUACGCCCC	-0.912 ± 0.52	-1.47 ± 1.2
GGGGAGCAAUAUUACGUCUA	-2.13 ± 0.67	
AAACAGCAAUAUUACGUCCU	-0.281 ± 0.07	0.347 ± 0.094
GUCGAGCAAUAUUACGCAUC	-2.31 ± 0.26	-0.574 ± 0.22
GCUUAGCAAUAUUACGCUAC	0.239 ± 0.78	
CAGAAGCAAUAUUACGAUUC	-4.53 ± 0.52	-1.98 ± 0.18
GAGUAGCAAUAUUACGAACA	-0.643 ± 0.72	
ACGGAGCAAUAUUACGGCUU		-2.46 ± 0.77
GCGUAGCAAUAUUACGCUGA	-4.25 ± 0.62	
AUUGAGCAAUAUUACGGCGU	-0.734 ± 0.11	0.573 ± 0.17
UCGGAGCAAUAUUACGUAGA	-1.4 ± 1.2	-1.38 ± 0.67
ACGGAGCAAUAUUACGUUUU	-5.16 ± 0.51	
GUGGAGCAAUAUUACGUGAC	-2.79 ± 0.64	
CUUAAGCAAUAUUACGAUCC		-2.7 ± 0.76
CUGGAGCAAUAUUACGUCGG		-2.49 ± 0.62
GACUAGCAAUAUUACGGAAA	-1.53 ± 0.14	-0.989 ± 0.14
